Assay results: the supplement of paper PMC3545927
This is a selection; strong and weak results do not stand in their true shares.

Protein sequences, listed by entry. Tags and fused reporters are not part of them.
furin, P09958, UniProt P09958, whole entry: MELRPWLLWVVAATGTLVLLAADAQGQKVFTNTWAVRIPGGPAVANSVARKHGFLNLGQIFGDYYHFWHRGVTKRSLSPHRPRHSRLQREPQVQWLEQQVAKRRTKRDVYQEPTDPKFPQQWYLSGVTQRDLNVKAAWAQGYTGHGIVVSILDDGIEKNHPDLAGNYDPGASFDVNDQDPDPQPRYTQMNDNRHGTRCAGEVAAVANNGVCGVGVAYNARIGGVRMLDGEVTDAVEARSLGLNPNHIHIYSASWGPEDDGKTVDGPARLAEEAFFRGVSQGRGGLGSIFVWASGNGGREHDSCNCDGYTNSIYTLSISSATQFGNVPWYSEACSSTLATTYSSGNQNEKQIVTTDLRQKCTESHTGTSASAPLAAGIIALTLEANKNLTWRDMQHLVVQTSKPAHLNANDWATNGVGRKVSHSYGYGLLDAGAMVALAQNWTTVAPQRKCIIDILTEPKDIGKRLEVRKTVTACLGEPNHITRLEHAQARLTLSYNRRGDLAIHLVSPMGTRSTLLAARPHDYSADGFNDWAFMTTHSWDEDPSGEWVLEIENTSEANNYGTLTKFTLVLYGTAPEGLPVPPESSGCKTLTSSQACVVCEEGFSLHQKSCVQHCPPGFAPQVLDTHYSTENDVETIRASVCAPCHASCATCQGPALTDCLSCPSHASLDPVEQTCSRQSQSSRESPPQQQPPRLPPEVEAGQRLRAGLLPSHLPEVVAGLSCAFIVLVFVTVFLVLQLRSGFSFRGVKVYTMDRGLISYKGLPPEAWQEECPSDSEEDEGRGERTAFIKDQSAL

Molecular target: furin, P09958
Test: furin cleavage Z-score vs untreated control; higher = more cleavage, active = 3.5 or more, inactive = 1 or less, 8 variable residues between constant flanks
Method: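 Multiplexed peptide-cDNA fusion cleavage assay. 8-mer variable peptides flanked by constant Cys-Ala (N-term) and Ala-Gly-Asn-Ala-Ser-Ala-Ser-Ala (C-term) and conjugated to a cDNA oligonucleotide were bead-immobilised via the N-terminus. They were treated with purified furin at a 1:10 enzyme:substrate ratio in 50 mM HEPES pH 7.5, 1 mM CaCl2, 100 mM NaCl for 7.5, 15 or 30 min. Released cDNA was counted by next-generation sequencing, and log counts versus no-furin controls were lowess-adjusted and converted to robust Z-scores.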

Sequence | furin cleavage Z-score (7.5 min) | furin cleavage Z-score (15 min) | furin cleavage Z-score (30 min)
CAVEEACSLTAGNASASA [HC1413] | 1.3 | 2.43 | 2.83
CAMIECSQHLAGNASASA [HC1684] | 1.09 | 1.22 | 1.23
CATLGRHRRIAGNASASA [FS-305] |  | active: 4.75 | active: 4.61
CAAPNYTFALAGNASASA [HC1198] | inactive: -1.92 | inactive: -0.299 | inactive: -0.368
CAGGRRRKKSAGNASASA [FS-654] | 1.86 | 2.14 | 2.63
CAMQKRSVTAAGNASASA [FS-2632] | 1.25 | 2.99 | 3.47
CALVVTSTWVAGNASASA [HC2145] | inactive: -0.711 | inactive: -0.969 | inactive: -0.561
CAVAACLRKLAGNASASA [HC1613] | 2.6 | 1.36 | 1.97
CARPRRWKLQAGNASASA [FS-3201] | 1.28 | 1.04 | 1.05
CASRDRFRRSAGNASASA [FS-1282] | active: 13 | active: 12.2 | active: 9.49
CALFNWAVRTAGNASASA [HC1633] | 2.37 | 1.33 | 1.17
CAQTRGLLGCAGNASASA [HC678] | inactive: 0.117 | inactive: -0.157 | inactive: -0.705
CAHPKRPSRQAGNASASA [FS-537] | 2.45 | 2.47 | 2.01
CALRARKNRSAGNASASA [FS-942] | active: 8.1 | active: 8.12 | active: 6.93
CARQKRLSHVAGNASASA [FS-2226] | 1.31 | 2.13 | 2.36
CARLARRAHRAGNASASA [FS-1736] | 1.23 | 1.5 | 2.96
CARMRRGAGGAGNASASA [FS-2724] | 2.04 | 2.43 | 2.69
CARPRRPRGAAGNASASA [FS-2166] | 2.21 | 1.1 | 1.48
CALRSRWGRFAGNASASA [FS-1369] | 2.53 | 1.38 | 1.71

Sequence | furin cleavage Z-score (7.5 min) | furin cleavage Z-score (15 min) | furin cleavage Z-score (30 min)
CAAKDVRCHAAGNASASA [HC1423] | 2.63 | 1.91 | 1.42
CACWPRHRRVAGNASASA [FS-1314] | inactive: 0.553 | 1.38 | 2.27
CAQWIRVKRTAGNASASA [FS-372] | active: 10 | active: 8.77 | active: 8.64
CALEGRRKRAAGNASASA [FS-938] | active: 9.45 | active: 10.2 | active: 8.2
CAMEECQQHLAGNASASA [HC39] | 1.54 | inactive: 0.787 | 2.55
CAEHFRKKRSAGNASASA [FS-1450] | active: 13.1 | active: 12 | active: 10.4
CARVFRDAGAAGNASASA [FS-2617] | 1.53 | 1.03 | 1.31
CAGCPERLASAGNASASA [HC386] | 1.74 | inactive: 0.605 | inactive: -0.259
CAEVVTSTWWAGNASASA [HC2248] | 2.34 | 1.15 | 1.81
CATTPCSGLWAGNASASA [HC1905] | inactive: 0.96 | 1.01 | inactive: -0.0137
CARHKRMCQGAGNASASA [FS-2335] | 1.23 | inactive: 0.787 | 3.08
CASTPCSAGLAGNASASA [HC2556] | inactive: -0.924 | inactive: -0.11 | inactive: -0.471
CASQARLGRIAGNASASA [FS-301] | inactive: -1.06 | inactive: -0.739 | inactive: -0.311
CAENARKIRTAGNASASA [FS-233] | 3.32 | 2.61 | 2.12
CATTPPSGSWAGNASASA [HC60] | inactive: -1.04 | inactive: -0.299 | inactive: -0.554
CATRSRNSRFAGNASASA [FS-730] | 2.17 | 3.15 | 3.21
CARKRRAKREAGNASASA [FS-1650] | active: 13 | active: 13.6 | active: 9.6
CAGREVPCHRAGNASASA [HC2436] | 1.55 | 1.03 | 1.31

Three entries drawn at random from those above:
Sequence | furin cleavage Z-score (7.5 min) | furin cleavage Z-score (15 min) | furin cleavage Z-score (30 min)
CAQWIRVKRTAGNASASA [FS-372] | active: 10 | active: 8.77 | active: 8.64
CAMEECQQHLAGNASASA [HC39] | 1.54 | inactive: 0.787 | 2.55
CAGGRRRKKSAGNASASA [FS-654] | 1.86 | 2.14 | 2.63
